Data on one substance can be found in article PMC11418123, “Structure of a truncated human GlcNAc-1-phosphotransferase variant reveals the basis for its hyperactivity” (The Journal of Biological Chemistry, 2024).

Chains of the proteins cited; added tags and fusions are not shown. Residues count along the entry.
UniProt Q3T906, residues 44-1209: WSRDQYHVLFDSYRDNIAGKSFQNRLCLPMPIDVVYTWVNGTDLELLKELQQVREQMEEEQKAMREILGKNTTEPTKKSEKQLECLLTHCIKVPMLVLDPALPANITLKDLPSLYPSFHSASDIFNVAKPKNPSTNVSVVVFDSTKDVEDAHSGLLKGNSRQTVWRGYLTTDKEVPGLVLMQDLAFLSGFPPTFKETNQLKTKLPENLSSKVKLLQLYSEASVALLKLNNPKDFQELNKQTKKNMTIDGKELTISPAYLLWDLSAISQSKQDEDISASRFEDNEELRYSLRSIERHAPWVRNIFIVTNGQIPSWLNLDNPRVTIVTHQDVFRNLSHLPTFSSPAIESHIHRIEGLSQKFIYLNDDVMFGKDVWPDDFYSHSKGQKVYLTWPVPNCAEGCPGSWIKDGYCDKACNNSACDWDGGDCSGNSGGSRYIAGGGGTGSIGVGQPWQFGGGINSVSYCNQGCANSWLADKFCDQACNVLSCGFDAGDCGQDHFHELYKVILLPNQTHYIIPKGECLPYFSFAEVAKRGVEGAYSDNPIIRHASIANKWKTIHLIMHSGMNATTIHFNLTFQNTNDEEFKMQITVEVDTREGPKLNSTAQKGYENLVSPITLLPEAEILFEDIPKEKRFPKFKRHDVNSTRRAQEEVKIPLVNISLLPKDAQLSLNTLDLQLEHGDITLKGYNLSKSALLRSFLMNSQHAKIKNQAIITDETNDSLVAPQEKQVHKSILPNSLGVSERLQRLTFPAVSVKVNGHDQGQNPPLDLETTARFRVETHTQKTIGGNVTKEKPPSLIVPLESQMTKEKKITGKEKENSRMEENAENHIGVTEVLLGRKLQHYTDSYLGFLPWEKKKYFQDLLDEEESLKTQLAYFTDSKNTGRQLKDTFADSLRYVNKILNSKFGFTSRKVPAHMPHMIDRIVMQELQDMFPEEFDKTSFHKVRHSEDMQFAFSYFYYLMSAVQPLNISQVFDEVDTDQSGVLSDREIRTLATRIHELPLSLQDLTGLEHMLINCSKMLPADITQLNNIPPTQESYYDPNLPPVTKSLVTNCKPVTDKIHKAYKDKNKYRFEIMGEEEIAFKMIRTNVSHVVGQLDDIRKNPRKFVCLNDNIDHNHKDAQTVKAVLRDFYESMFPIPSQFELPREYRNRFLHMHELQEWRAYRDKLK

This test deals with soluble full-length human GlcNAc-1-phosphotransferase αβ (hPTase-αβ) (human) (UniProt Q3T906). The test is described as follows: cryo-EM structure; single-particle cryo-EM of hPTase at 0.1 mg/ml incubated with 10 mM UDP-GlcNAc and 10 mM MnCl2 for 6 h at 4 °C; 2.9 Å; both purified.

These are yes or no findings as the source states them, for the method shown. Some binding calls cover weakened binding; strength is not graded here.

Regarding “soluble full-length human GlcNAc-1-phosphotransferase αβ (hPTase-αβ) (from UniProt Q3T906 44-1209) (enzyme)”, the binding result was “binds”.
